Results published in patent EP4711384A1 (WIO Bioscience Co., Ltd., dated 2026).
These are yes or no findings as the source states them, for the method shown. Some binding calls cover weakened binding; strength is not graded here.

B1: Wio-02-01 (R1-A12-GGGGS-Rap-A10) (bispecific antibody)
chain: QVQLQESGGGPVQAGGSLRLSCSASTTAYDNACMGWFRQAPGKEREGVASIHLRDRTYYADSVKGRFTLSRDGASKTLYLQMNSLKPEDSGTYYCASSNICNGLNLQGNTYWGQGTQVTVSSGGGGSQVQLQESGGGLVQAGGSLKLSCAASGYTYGPYCMGWFRQFPGKEREGVAAVGGDGRTWYGNSVKGRFTISQDNAKKTLYLQINALKPEDTAMYYCAADFDRTVCSDDIYDYTYRGQGTQVTVSS
B2: Wio-02-03 (R1-C7-GGGGS-Rap-F11) (bispecific antibody)
chain: QVQLQESGGGPVQAEGSLRLSCTASGNLYRDPCMGWFRQAPGKDREGVAAMNTGADSTFYARSVKGRFTISHDNAKNTLYLQMNSVKPEDTAMYYCAASRYCTERTWTWRYDYDYWGQGTQVTVSSGSQVQLQESGGGSVQPGGSLRLSCAASGFTYIPAYMGWFRQAPGKERERVASIKTDGSTTYADSVNGRFTIAQDTAKNTLYLQMDSLKPEDTAMYYCAAYQFGAFRVWGQGTQVTVSS
B3: Wio-02-05 (R1-C7-GGGGS-Rap-C10) (bispecific antibody)
chain: QVQLQESGGGPVQAEGSLRLSCTASGNLYRDPCMGWFRQAPGKDREGVAAMNTGADSTFYARSVKGRFTISHDNAKNTLYLQMNSVKPEDTAMYYCAASRYCTERTWTWRYDYDYWGQGTQVTVSSGGGGSQVQLQESGGGSVQPGGSLRLSCAASGFTYIPAYMGWFRQAPGKERERVASISSTDGSTTYADSVKGRFTVSQDTAKNTLYLQMNSLKPEDTAMYYCAAYQFGAFRVWGQGTQVTVSS
B4: Wio-02-09 (R1-C10-GGGGS-Rap-F11) (bispecific antibody)
chain: QVQLQESGGGSVQAGETLRLSCTASGSTFDEYDMGWYRQAPGNKCELVSTISTIDGSTYYADSVKGRFTISQDNTKNTVYLQMNSLKPEDTGVYYCEADDRGTWDRGGCWGQGTQVTVSSGGGGSQVQLQESGGGSVQPGGSLRLSCAASGFTYIPAYMGWFRQAPGKERERVASIKTDGSTTYADSVNGRFTIAQDTAKNTLYLQMDSLKPEDTAMYYCAAYQFGAFRVWGQGTQVTVSS
B5: Wio-02-11 (R1-C10-GGGGS-Rap-C10) (bispecific antibody)
chain: QVQLQESGGGSVQAGETLRLSCTASGSTFDEYDMGWYRQAPGNKCELVSTISTIDGSTYYADSVKGRFTISQDNTKNTVYLQMNSLKPEDTGVYYCEADDRGTWDRGGCWGQGTQVTVSSGGGGSQVQLQESGGGSVQPGGSLRLSCAASGFTYIPAYMGWFRQAPGKERERVASISSTDGSTTYADSVKGRFTVSQDTAKNTLYLQMNSLKPEDTAMYYCAAYQFGAFRVWGQGTQVTVSS
B6: Wio-02-23 (R1-F9-GGGGS-Rap-C10) (bispecific antibody)
chain: QVQLQESGGGSVQAGETLRLSCTASGFTVHDMGWYRQAPGNECELVSTISSDGSTYYADSVKGRFTISQDNAKNTVYLQMNSLKPEDTAVYYCAADHFTGLQLAECKADFGYWGQGTQVTVSSGGGGSQVQLQESGGGSVQPGGSLRLSCAASGFTYIPAYMGWFRQAPGKERERVASISSTDGSTTYADSVKGRFTVSQDTAKNTLYLQMNSLKPEDTAMYYCAAYQFGAFRVWGQGTQVTVSS
B7: Wio-02-29 (Rap-A10-GGGGS-R1-A12) (bispecific antibody)
chain: QVQLQESGGGLVQAGGSLKLSCAASGYTYGPYCMGWFRQFPGKEREGVAAVGGDGRTWYGNSVKGRFTISQDNAKKTLYLQINALKPEDTAMYYCAADFDRTVCSDDIYDYTYRGQGTQVTVSSGGGGSQVQLQESGGGPVQAGGSLRLSCSASTTAYDNACMGWFRQAPGKEREGVASIHLRDRTYYADSVKGRFTLSRDGASKTLYLQMNSLKPEDSGTYYCASSNICNGLNLQGNTYWGQGTQVTVSS
B8: Wio-02-30 (Rap-C10-GGGGS-R1-C10) (bispecific antibody)
chain: QVQLQESGGGSVQPGGSLRLSCAASGFTYIPAYMGWFRQAPGKERERVASISSTDGSTTYADSVKGRFTVSQDTAKNTLYLQMNSLKPEDTAMYYCAAYQFGAFRVWGQGTQVTVSSGGGGSQVQLQESGGGSVQAGETLRLSCTASGSTFDEYDMGWYRQAPGNKCELVSTISTIDGSTYYADSVKGRFTISQDNTKNTVYLQMNSLKPEDTGVYYCEADDRGTWDRGGCWGQGTQVTVSS
B9: Wio-02-31 (Rap-C10-GGGGS-R1-F9) (bispecific antibody)
chain: QVQLQESGGGSVQPGGSLRLSCAASGFTYIPAYMGWFRQAPGKERERVASISSTDGSTTYADSVKGRFTVSQDTAKNTLYLQMNSLKPEDTAMYYCAAYQFGAFRVWGQGTQVTVSSGGGGSQVQLQESGGGSVQAGETLRLSCTASGFTVHDMGWYRQAPGNECELVSTISSDGSTYYADSVKGRFTISQDNAKNTVYLQMNSLKPEDTAVYYCAADHFTGLQLAECKADFGYWGQGTQVTVSS
B10: Wio-02-44 (Rap-A10-GGGGS-R1-E12) (bispecific antibody)
chain: QVQLQESGGGLVQAGGSLKLSCAASGYTYGPYCMGWFRQFPGKEREGVAAVGGDGRTWYGNSVKGRFTISQDNAKKTLYLQINALKPEDTAMYYCAADFDRTVCSDDIYDYTYRGQGTQVTVSSGGGGSQVQLQESGGGSVQAGGSLRLSCVASGTTMSMNYMAWFRQAPGKEREGVASIFRSTHYADSVKGRFTIAEDSAKNTVYLQMNSLKPEDTAVYYCAAGRTKPYLTPLAESQYNYWGQGIQVTVSS

Target: IL-18RAP ECD-hFc (human)
Assay: sandwich ELISA

binding	Binder
binds	B1
binds	B2
binds	B3
binds	B4
binds	B5
binds	B6
binds	B7
binds	B8
binds	B9
binds	B10
